# Data reported in patent publication EP1223923B1, “UNSATURATED ARYL SULFONES FOR PROTECTING NORMAL CELLS FROM CYTOTOXICITY OF CHEMOTHERAPEUTIC AGENTS” (Temple University - Of The Commonwealth System of Higher …, priority 1999, dated 2001).
# At least one structure is not confirmed: it was looked up by name or label, or the drawing left a doubt.
# What was measured:
# HFL-1 cells [1] = assay: Long term exposure of normal human fibroblasts, cell count; assay type: cell-based; settings: 2.5 or 5.0 µM for 48 or 72 hours; cells counted 96 hours after the incubation period
# HFL-1 cells [2] = assay: Protection of normal human fibroblasts from paclitaxel cytotoxicity (Trypan blue exclusion); assay type: cell-based; settings: pretreated with 2.0 µM for 8 hours, then paclitaxel (250 µM); viable cells 96 hours after paclitaxel
# HFL-1 cells [3] = assay: Protection of normal human fibroblasts from vincristine cytotoxicity; assay type: cell-based; settings: 2.0 µM sulfone 24 hours before 0-250 mM vincristine; viability 96 hours after vincristine
# ICR female mice = assay: Protection of mice from paclitaxel toxicity (mortality); assay type: in vivo; settings: 50 mg/Kg sulfone i.p. before 150 mg/kg paclitaxel i.p.; mortality 48 and 144 hours after paclitaxel
smiles,measurement,setting,value
"O=S(=O)(/C=C/c1ccc(F)cc1)Cc1ccc(Cl)cc1 [Example 7, (E)-4-fluorostyryl-4-chlorobenzyl sulfone]",replication rates,HFL-1 cells [1],transiently reduced replication rates
same,protection from the toxic effects of paclitaxel,HFL-1 cells [2],conferred protection from the toxic effects of paclitaxel
same,protection from the toxic effects of vincristine,HFL-1 cells [3],conferred protection from the toxic effects of vincristine
same,Paclitaxel toxicity in mice (mortality),ICR female mice,abrogated
